# No constants are given. Whether binding was seen depends on the method and setting. In cells and extracts the contact can be indirect. Some entries that bind do so weakly or less than the wild type.
# The chains behind the UniProt entries cited, without tags or fusion partners. Where a name states a change or a piece, a line headed by the entry shows the natural chain unless it says otherwise.
# UniProt P27695: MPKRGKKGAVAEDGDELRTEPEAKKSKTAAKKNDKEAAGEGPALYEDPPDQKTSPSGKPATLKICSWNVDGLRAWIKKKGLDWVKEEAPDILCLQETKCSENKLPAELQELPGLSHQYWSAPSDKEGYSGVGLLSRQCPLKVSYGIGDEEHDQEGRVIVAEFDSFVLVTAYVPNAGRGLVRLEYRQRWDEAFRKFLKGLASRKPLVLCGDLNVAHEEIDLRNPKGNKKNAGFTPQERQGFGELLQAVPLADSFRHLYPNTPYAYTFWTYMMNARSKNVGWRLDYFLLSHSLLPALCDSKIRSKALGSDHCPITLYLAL
# UniProt P18887: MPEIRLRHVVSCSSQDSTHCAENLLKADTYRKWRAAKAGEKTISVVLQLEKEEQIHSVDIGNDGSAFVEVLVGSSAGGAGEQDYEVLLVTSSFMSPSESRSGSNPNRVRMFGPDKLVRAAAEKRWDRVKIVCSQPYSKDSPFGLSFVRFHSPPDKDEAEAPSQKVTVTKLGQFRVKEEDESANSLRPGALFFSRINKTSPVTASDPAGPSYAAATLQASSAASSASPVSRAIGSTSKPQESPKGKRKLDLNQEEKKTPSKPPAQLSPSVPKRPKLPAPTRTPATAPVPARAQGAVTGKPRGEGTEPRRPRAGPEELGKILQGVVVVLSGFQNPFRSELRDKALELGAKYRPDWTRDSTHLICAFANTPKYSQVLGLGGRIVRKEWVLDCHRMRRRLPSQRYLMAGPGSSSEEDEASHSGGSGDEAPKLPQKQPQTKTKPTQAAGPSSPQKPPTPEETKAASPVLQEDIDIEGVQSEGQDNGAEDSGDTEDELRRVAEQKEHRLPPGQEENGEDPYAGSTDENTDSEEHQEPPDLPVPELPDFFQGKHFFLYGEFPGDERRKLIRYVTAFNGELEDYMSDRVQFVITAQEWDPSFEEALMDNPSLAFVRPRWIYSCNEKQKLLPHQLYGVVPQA
# Experiments:
# [1] = molecular target: APE1 D148E genetic variant, Flag-tagged (human) (UniProt P27695); assay: co-IP; HeLa cells transiently transfected with Flag-tagged APE1 plasmids; co-immunoprecipitated Polβ and XRCC1 detected by Western blot, normalized to the FLAG-tagged variant levels; APE1^WT set to 100%
# [2] = molecular target: Apurinic/apyrimidinic endonuclease 1 (APE1), wild type, Flag-tagged (human) (UniProt P27695); assay: as above
binding [1],binding [2],Substance
binds,–,X-ray repair cross-complementing protein 1 (from UniProt P18887 1-633)
–,binds,X-ray repair cross-complementing protein 1 (from UniProt P18887 1-633) (other; other documents disagree on this pair)
